Measured values: PMC12743421
Results are given in words; binding and its absence hold for the method and conditions named. Binding seen in cells or lysates may run through a third protein. A yes stands for co-enrichment or nearness to the bait. Other partners may have been found.

Sequences of proteins named here, by UniProt entry; tags and fusion partners are left off.
UniProt F1LP64: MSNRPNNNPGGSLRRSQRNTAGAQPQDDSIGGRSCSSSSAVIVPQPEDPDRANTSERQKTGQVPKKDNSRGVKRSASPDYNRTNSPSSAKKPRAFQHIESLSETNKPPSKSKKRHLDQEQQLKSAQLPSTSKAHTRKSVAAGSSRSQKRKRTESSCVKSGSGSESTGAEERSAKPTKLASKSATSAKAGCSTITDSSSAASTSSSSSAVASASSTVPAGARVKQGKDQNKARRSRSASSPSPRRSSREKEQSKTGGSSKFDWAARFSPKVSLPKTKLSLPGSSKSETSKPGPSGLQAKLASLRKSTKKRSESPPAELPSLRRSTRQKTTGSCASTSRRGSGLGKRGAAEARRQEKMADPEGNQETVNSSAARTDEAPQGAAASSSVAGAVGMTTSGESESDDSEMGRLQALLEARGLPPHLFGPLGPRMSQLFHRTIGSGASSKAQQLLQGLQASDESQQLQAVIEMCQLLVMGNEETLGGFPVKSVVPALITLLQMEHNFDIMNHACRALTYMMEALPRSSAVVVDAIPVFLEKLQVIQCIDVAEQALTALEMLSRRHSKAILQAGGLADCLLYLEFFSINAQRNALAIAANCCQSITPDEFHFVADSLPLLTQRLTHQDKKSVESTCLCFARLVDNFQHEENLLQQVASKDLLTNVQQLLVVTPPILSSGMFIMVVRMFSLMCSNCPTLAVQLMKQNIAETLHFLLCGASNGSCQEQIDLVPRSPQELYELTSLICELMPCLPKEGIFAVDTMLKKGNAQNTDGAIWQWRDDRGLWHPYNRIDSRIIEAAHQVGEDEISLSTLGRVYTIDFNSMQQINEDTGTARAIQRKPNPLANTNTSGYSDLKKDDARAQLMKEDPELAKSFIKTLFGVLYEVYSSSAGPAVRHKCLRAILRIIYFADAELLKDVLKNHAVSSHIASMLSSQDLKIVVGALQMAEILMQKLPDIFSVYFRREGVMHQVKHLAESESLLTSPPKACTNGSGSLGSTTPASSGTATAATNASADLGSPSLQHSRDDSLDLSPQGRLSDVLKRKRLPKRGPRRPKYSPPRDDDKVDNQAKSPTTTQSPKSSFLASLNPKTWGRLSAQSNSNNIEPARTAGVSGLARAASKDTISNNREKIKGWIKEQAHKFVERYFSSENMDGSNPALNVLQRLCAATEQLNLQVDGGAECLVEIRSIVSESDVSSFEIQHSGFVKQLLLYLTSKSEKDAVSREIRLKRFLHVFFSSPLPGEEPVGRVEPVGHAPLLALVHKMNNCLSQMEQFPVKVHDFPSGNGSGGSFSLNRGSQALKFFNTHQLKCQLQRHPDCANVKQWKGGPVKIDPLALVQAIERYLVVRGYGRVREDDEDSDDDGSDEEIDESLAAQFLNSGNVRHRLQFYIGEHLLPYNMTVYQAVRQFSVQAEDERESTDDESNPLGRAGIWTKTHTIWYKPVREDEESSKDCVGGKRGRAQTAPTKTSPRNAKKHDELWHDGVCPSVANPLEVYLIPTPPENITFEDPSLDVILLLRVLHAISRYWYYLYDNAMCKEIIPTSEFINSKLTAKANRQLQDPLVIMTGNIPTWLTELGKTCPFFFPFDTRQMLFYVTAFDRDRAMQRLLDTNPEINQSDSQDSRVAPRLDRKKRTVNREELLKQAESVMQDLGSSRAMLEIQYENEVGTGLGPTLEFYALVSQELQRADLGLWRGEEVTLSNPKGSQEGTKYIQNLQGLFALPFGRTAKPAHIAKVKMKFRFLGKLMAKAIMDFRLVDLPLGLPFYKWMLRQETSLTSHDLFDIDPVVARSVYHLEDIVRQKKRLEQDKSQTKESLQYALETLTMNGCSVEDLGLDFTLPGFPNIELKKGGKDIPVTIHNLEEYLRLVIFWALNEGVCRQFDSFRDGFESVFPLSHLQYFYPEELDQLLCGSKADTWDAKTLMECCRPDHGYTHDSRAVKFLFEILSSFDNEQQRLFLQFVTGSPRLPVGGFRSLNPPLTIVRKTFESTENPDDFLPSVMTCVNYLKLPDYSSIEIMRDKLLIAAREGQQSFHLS

Target: T1, Cyclin-dependent kinase 4 (rat (endogenous in primary ADSCs)) (UniProt P35426)
T1 sequence: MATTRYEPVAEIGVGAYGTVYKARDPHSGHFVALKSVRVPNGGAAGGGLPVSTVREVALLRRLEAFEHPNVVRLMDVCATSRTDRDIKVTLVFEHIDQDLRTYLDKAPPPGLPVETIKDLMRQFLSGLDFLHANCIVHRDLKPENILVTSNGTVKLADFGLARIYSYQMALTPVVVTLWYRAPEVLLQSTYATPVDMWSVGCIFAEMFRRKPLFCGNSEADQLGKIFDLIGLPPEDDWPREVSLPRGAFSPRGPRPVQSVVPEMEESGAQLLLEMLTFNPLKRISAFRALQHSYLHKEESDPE
Assay: affinity purification with mass spectrometry; samples precipitated with the anti-CDK4 antibody, digested with trypsin, nano-LC and Q-Exactive MS, Proteome Discoverer 2.1; screen for ubiquitination regulators (Venn diagram)

Substance	binding
deubiquitinase OTUD4 (rat (endogenous in primary ADSCs)) (enzyme)	binds
E3 ubiquitin ligase TRIP12 (from UniProt F1LP64 1-2025) (enzyme)	binds
